Measurements from the supplement of paper PMC12819154, “High-throughput peptide-centric local stability assay extends protein–ligand identification to membrane proteins, tissues and bacteria” (Nature Structural & Molecular Biology, 2025).
Some of the results follow. Most entries show no effect beyond the scatter of the controls.

Sequences of proteins named here, by UniProt entry; tags and fusion partners are left off. A change or cut given only in a name is not applied to a line headed by its entry.
UniProt Q93096: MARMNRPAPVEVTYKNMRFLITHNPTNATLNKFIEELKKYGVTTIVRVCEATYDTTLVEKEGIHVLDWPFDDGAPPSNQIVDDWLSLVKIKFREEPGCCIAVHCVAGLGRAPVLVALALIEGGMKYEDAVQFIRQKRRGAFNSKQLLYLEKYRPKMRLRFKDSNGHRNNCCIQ
UniProt Q92696: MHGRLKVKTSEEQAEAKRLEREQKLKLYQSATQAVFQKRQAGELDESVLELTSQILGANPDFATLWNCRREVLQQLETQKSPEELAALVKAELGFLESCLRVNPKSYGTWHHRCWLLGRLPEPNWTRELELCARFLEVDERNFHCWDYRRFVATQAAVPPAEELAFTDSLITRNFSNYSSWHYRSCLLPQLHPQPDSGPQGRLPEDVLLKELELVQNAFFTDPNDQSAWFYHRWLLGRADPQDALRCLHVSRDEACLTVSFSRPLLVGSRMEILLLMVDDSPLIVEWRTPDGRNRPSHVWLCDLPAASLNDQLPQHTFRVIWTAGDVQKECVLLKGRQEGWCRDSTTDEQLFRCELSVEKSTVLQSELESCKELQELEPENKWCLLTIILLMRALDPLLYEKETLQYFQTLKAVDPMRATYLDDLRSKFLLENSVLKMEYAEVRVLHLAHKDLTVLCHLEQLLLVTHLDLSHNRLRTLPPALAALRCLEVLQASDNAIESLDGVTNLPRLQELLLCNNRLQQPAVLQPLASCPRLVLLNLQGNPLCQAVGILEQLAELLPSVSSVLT
UniProt Q92733: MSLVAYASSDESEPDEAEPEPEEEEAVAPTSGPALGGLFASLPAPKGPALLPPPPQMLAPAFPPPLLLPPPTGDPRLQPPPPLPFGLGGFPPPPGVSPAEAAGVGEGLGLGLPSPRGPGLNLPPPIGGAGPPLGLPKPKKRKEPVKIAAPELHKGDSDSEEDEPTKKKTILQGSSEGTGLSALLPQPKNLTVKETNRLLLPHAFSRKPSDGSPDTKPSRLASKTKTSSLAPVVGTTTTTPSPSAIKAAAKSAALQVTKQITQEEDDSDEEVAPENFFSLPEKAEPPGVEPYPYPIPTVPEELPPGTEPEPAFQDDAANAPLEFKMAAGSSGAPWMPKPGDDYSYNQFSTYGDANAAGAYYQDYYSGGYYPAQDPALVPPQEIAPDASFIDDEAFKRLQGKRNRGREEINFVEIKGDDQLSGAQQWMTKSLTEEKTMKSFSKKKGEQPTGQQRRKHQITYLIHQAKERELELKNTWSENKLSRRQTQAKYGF
UniProt Q96B23: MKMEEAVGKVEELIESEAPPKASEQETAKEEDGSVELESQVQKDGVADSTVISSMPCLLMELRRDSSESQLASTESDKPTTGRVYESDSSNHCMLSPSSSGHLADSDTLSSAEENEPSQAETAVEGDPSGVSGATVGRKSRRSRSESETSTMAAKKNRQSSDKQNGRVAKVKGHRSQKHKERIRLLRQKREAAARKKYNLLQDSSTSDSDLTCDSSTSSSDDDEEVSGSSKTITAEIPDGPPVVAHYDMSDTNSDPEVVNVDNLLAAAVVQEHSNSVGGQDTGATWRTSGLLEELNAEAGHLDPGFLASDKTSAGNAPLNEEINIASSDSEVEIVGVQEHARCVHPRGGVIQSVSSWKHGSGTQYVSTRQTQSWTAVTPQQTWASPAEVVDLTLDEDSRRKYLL
UniProt Q969F1: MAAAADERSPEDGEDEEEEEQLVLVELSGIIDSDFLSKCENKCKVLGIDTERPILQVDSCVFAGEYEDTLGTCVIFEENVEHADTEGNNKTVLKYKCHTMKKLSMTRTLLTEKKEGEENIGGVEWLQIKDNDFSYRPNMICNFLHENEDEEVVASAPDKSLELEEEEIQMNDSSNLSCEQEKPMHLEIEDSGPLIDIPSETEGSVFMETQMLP
UniProt Q96BT7: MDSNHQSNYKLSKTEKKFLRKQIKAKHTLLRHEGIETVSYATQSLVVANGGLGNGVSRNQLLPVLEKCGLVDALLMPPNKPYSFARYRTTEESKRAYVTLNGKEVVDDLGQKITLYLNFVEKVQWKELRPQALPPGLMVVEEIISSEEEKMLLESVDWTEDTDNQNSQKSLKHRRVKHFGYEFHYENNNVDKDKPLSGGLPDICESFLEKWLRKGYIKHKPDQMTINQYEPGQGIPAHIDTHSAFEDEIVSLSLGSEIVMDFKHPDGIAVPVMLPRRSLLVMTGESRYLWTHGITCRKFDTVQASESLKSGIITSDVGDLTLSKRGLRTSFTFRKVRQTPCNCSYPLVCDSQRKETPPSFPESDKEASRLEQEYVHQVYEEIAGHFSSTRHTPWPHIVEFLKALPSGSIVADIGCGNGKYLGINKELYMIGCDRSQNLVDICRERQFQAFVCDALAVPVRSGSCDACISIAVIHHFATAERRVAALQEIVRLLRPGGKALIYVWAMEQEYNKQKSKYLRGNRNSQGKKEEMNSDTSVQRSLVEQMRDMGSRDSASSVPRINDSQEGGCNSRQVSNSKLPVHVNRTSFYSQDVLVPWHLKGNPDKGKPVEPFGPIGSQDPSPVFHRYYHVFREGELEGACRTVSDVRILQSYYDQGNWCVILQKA
UniProt Q96AJ9: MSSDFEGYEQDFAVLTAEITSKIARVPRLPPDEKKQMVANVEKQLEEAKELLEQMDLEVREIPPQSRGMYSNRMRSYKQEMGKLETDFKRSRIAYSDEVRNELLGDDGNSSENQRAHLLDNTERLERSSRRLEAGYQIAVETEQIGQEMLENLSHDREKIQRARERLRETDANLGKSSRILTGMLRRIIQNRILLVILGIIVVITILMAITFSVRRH
UniProt Q969X6: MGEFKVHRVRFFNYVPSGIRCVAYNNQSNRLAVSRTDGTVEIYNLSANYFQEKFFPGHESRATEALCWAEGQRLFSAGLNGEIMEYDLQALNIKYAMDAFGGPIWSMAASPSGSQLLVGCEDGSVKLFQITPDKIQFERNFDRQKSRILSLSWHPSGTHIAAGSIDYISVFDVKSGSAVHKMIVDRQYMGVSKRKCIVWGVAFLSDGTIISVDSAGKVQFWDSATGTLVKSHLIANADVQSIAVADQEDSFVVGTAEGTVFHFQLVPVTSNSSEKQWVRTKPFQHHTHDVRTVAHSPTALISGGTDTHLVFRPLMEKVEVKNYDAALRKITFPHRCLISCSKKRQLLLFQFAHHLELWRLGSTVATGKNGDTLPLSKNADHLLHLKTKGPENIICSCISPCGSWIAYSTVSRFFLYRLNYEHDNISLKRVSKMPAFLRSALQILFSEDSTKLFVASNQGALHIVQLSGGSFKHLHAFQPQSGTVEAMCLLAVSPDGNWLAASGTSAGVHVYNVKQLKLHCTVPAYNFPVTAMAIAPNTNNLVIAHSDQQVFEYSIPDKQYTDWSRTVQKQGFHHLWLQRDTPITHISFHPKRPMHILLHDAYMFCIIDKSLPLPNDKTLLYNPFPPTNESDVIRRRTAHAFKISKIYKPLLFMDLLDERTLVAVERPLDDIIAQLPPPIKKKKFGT
UniProt Q93009, whole entry, looked up: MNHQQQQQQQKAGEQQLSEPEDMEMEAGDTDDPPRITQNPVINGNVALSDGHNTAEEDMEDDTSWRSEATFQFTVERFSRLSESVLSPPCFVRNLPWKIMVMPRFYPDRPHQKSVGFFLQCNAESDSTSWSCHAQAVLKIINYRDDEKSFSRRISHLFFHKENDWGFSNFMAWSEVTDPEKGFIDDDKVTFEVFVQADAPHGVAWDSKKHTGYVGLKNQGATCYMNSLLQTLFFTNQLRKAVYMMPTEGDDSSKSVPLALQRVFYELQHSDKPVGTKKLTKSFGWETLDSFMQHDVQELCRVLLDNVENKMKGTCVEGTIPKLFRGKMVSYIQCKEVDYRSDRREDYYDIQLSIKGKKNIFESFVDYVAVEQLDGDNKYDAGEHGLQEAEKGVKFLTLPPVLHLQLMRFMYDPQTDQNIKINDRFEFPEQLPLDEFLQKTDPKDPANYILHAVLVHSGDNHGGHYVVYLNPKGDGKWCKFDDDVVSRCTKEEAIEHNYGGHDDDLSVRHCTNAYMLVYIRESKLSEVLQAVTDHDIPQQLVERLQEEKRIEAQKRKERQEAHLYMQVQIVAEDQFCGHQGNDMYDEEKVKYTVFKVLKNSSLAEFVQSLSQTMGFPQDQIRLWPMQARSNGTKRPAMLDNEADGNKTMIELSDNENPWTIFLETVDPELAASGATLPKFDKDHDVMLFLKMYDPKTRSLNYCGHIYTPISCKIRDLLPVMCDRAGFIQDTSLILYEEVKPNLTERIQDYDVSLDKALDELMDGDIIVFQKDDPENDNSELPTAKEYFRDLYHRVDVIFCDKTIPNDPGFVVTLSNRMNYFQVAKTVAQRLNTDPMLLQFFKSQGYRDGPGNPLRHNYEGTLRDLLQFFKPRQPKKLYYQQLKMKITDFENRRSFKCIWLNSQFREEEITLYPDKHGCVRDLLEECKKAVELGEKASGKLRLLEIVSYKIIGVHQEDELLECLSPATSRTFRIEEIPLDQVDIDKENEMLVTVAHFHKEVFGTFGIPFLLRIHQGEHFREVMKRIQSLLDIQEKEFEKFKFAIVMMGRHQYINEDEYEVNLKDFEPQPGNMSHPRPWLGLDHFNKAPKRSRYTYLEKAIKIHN
UniProt Q96BR5: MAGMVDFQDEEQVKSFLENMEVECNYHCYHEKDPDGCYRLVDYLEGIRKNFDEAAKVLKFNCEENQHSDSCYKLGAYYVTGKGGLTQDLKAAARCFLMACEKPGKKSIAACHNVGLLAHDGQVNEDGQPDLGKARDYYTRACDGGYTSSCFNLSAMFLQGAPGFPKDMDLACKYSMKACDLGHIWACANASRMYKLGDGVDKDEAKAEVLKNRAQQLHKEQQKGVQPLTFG
UniProt Q96BW9: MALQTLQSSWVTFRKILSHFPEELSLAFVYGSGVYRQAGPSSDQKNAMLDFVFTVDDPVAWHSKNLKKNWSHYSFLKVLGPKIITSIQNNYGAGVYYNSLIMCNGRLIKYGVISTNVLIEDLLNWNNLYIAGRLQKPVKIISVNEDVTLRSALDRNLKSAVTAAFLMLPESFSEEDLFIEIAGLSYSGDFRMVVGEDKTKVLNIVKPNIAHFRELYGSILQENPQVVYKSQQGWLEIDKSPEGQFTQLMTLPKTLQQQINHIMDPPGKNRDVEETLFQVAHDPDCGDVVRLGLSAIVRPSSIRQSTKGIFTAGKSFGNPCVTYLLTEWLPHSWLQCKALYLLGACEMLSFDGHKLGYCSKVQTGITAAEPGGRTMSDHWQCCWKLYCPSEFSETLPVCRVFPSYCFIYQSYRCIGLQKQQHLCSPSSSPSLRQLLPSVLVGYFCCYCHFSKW
UniProt Q96D70: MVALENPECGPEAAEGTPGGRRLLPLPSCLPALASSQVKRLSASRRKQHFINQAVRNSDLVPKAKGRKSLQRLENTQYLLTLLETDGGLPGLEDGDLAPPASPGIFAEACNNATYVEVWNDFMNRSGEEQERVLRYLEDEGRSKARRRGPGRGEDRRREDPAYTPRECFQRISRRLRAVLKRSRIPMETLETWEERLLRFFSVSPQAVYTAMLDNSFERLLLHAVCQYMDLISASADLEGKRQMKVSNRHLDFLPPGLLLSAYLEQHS
UniProt Q92913: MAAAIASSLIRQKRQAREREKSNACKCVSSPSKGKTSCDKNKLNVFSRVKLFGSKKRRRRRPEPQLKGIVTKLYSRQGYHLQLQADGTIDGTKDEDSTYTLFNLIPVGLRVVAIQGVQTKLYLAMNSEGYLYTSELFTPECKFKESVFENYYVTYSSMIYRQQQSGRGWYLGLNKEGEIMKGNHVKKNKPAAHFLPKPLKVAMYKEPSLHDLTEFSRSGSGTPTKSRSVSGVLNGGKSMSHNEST
UniProt Q96EN9: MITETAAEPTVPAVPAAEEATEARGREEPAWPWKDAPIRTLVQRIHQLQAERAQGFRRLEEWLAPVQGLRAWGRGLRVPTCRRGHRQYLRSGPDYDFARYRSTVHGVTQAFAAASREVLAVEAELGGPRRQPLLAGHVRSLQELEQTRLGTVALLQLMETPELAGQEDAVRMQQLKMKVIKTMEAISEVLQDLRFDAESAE
UniProt Q92979: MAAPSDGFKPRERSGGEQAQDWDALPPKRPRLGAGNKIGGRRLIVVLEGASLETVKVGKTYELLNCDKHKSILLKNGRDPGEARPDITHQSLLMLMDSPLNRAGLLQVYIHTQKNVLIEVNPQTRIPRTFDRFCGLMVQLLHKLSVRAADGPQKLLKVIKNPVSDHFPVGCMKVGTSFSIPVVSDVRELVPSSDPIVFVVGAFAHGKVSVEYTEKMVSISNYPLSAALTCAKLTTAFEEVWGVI
UniProt Q96EK6: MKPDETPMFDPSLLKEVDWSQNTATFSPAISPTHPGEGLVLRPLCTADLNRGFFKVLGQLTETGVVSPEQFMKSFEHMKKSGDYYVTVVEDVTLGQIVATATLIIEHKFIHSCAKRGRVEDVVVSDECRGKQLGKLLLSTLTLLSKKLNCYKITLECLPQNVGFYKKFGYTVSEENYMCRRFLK
UniProt Q96AT1: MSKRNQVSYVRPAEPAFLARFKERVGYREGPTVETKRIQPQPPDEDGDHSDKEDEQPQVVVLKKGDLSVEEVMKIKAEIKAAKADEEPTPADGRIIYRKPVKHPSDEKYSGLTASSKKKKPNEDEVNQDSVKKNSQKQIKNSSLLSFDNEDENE

Compound: Cc1nc(Nc2ncc(C(=O)Nc3c(C)cccc3Cl)s2)cc(N2CCN(CCO)CC2)n1 [dasatinib]
Test: log2 fold change of tryptic peptide abundance, ligand vs vehicle (limited proteolysis) (log2 ratio); higher = more trypsin-susceptible (destabilized)
Settings: ligand concentration: 5 uM; sample: K562 cleared lysate

Target	log2 fold change
SECISBP2L (peptide sequence: EYETNWR, peptide start residue: 873) (UniProt Q93073)	0.414
RUBCN (peptide sequence: NLLPMYQEAEHGSFR, peptide start residue: 550) (UniProt Q92622)	0.161
UniProt Q93096 (peptide sequence: YGVTTIVR, peptide start residue: 40)	0.0986
OPTN (peptide sequence: QFFEIQSK, peptide start residue: 84) (UniProt Q96CV9)	0.174
RABGGTA (peptide sequence: TSEEQAEAKR, peptide start residue: 9) (UniProt Q92696)	-0.973
PRCC (peptide sequence: KHQITYLIHQAK, peptide start residue: 454) (UniProt Q92733)	-0.131
UniProt Q96EH5 (peptide sequence: QNRPIPQWIQMKPGSK, peptide start residue: 19)	0.293
UniProt Q96A08 (peptide sequence: ESYSIYIYK, peptide start residue: 37)	0.212
FOXRED1 (peptide sequence: VPAFETLK, peptide start residue: 395) (UniProt Q96CU9)	-0.154
C18orf25 (peptide sequence: SRSESETSTMAAKK, peptide start residue: 143) (UniProt Q96B23)	-0.35
GTF3C6 (peptide sequence: KEGEENIGGVEWLQIK, peptide start residue: 114) (UniProt Q969F1)	0.154
ALKBH8 (peptide sequence: QVSNSKLPVHVNR, peptide start residue: 572) (UniProt Q96BT7)	-0.455
VTI1A (peptide sequence: AHLLDNTERLER, peptide start residue: 116) (UniProt Q96AJ9)	-0.142
UniProt Q969X6 (peptide sequence: QGFHHLWLQR, peptide start residue: 570)	0.154
USP7 (peptide sequence: VFYELQHSDKPVGTKK, peptide start residue: 263) (UniProt Q93009)	0.645
RCN3 (peptide sequence: EELTAFLHPEEFPHMR, peptide start residue: 186) (UniProt Q96D15)	0.188
UniProt Q96BR5 (peptide sequence: ACDLGHIWACANASR, peptide start residue: 178)	0.102
UniProt Q96BW9 (peptide sequence: VLNIVKPNIAHFR, peptide start residue: 201)	0.555
R3HDM4 (peptide sequence: LLPLPSCLPALASSQVKR, peptide start residue: 23) (UniProt Q96D70)	0.0964
EXOC4 (peptide sequence: ESEVLIGNLGDK, peptide start residue: 682) (UniProt Q96A65)	-0.161
FGF13 (peptide sequence: SMSHNEST, peptide start residue: 238) (UniProt Q92913)	0.27
HDAC10 (peptide sequence: EETEAWARPHESLAR, peptide start residue: 439) (UniProt Q969S8)	-1.02
REX1BD (peptide sequence: IHQLQAER, peptide start residue: 45) (UniProt Q96EN9)	0.136
EMG1 (peptide sequence: AAPSDGFKPR, peptide start residue: 2) (UniProt Q92979)	-0.0516
GNPNAT1 (peptide sequence: VEDVVVSDECR, peptide start residue: 119) (UniProt Q96EK6)	-0.0415
KIAA1143 (peptide sequence: HPSDEKYSGLTASSK, peptide start residue: 103) (UniProt Q96AT1)	0.434

2 entries from above, as labelled records:
UniProt Q96BW9 (peptide sequence: VLNIVKPNIAHFR, peptide start residue: 201)
  log2 fold change: 0.555
R3HDM4 (peptide sequence: LLPLPSCLPALASSQVKR, peptide start residue: 23) (UniProt Q96D70)
  log2 fold change: 0.0964
